From US9204640B2, “2-acyloxy-pyrrolin-4-ones” (BAYER INTELLECTUAL PROPERTY GMBH, priority 2011, dated 2015)
Some results were stated once for a whole list of compounds, not compound by compound. Some ranges recur; such a range may be that of the whole group of compounds.

Experiments:
Type in all cases: in vivo
Avena fatua = test: Herbicidal post-emergence action, AVEFA; conditions: about 3 weeks
Protocol: (§1) 2. Herbicidal Post-Emergence Action
(§2) • Seeds of monocotyledonous and dicotyledonous weed and crop plants are placed in sandy loam in wood-fiber pots, covered with soil and cultivated in a greenhouse under good growth conditions. 2 to 3 weeks after sowing, the test plants are treated at the one-leaf stage. The test compounds, formulated as wettable powders (WP), are then, with a water application rate of 600 l/ha (converted), with 0.2% of wetting agent added, sprayed at various dosages onto the green parts of the plants. After the test plants have been kept in the greenhouse under optimum growth conditions for about 3 weeks, the activity of the preparations is rated visually in comparison to untreated controls (herbicidal activity in percent: 100% activity=the plants have died, 0% activity=like control plants). • In addition to the compounds mentioned above, the following compounds show an activity of 90-100% against Alopecurus myosuroides, Avena fatua, Digitaria sanguinalis, Echinocloa crus-galli, Lolium multiflorum, Setaria viridis and Sorghum halapense when applied by the post-emergence method at 320 g/ha: I-a-2, I-a-4, I-a-5, I-a-7, I-a-9, I-a-10, I-a-11, I-a-12, I-a-13, I-a-15. • In addition to the compounds mentioned above, the following compounds show an activity of 90-100% against Alopecurus myosuroides, Avena fatua, Echinocloa crus-galli, Lolium multiflorum and Setaria viridis when applied by the post-emergence method at 80 g/ha: I-a-1, I-b-2.
(§3) • Seeds of monocotyledonous and dicotyledonous weed plants and crop plants are placed in wood-fiber pots in sandy loam and covered with soil. The test compounds, formulated in the form of wettable powders (WP) or emulsion concentrates (EC), are then, as an aqueous suspension with a water application rate of 600-800 l/ha (converted), with 0.1-0.2% of wetting agent added, applied at various dosages to the surface of the covering soil. • After the treatment, the pots are placed in a greenhouse and kept under good growth conditions for the test plants. […] Herbicidal Post-Emergence Action (Post) • Seeds of monocotyledonous and dicotyledonous weed and crop plants are placed in sandy loam in wood-fiber pots, covered with soil and cultivated in a greenhouse under good growth conditions. 2-3 weeks (stages 10-13 according to the BBCH scale) after sowing, the test plants are treated at a height of 5-10 cm. The test compounds, formulated as wettable powders (WP) or emulsion concentrates (EC), are then, with a water application rate of 600-800 l/ha (converted), with 0.1-0.2% of wetting agent added, sprayed at various dosages onto the green parts of the plants.
(§4) AVEFA: Avena fatua LOLMU: Lolium multiflorum SETVI: Setaria viridis CHEAL: Chenopodium album VIOTR: Viola tricolor VERPE: Veronica persica ORYSA: Oryza sativa TRZAS: Triticum aestivum ZEAMX: Zea mays ALOMY: Alopecurus myosuroides DIGSA: Digitaria sanguinalis ECHCG: Echinocloa crus-galli SORHA: Sorghum halepense AVESA: Avena sativa AMARE: Amaranthus retroflexus SINAL: Sinapis alba STEME: Stellaria media

Setaria viridis [1] = test: Herbicidal pre-emergence action, SETVI; conditions: 320 g/ha of a.i., about 3 weeks
Excerpt: (§5) 1. Herbicidal Pre-Emergence Action
(§6) • Seeds of monocotyledonous and dicotyledonous weed plants and crop plants are placed in wood-fiber pots in sandy loam and covered with soil. The test compounds, formulated in the form of wettable powders (WP), are then, as an aqueous suspension with a water application rate of 600 l/ha (converted), with 0.2% of wetting agent added, applied at various dosages to the surface of the covering soil. • After the treatment, the pots are placed in a greenhouse and kept under good growth conditions for the test plants. The visual assessment of the damage to the test plants is carried out after a trial period of about 3 weeks by comparison with untreated controls (herbicidal activity in percent: 100% activity=the plants have died, 0% activity=like control plants). • In addition to the compounds mentioned above, the following compounds show an activity of 90-100% against Alopecurus myosuroides, Digitaria sanguinalis, Echinocloa crus-galli, Lolium multiflorum, Setaria viridis and Sorghum halapense when applied by the pre-emergence method at 320 g/ha of a.i.: I-a-2, I-a-10, I-a-11, I-a-12.
(§7) 1. Herbicidal Pre-Emergence Action (Pre)
as §3, §4

Echinocloa crus-galli [2] = test: Herbicidal pre-emergence action, ECHCG; conditions: 320 g/ha of a.i., about 3 weeks
Setaria viridis [3] = test: Herbicidal post-emergence action, SETVI; conditions: about 3 weeks
Protocol: as §1, §2, §3, §4

Alopecurus myosuroides [4] = test: Herbicidal pre-emergence action, ALOMY; conditions: 320 g/ha of a.i., about 3 weeks
Alopecurus myosuroides [5] = test: Herbicidal post-emergence action, ALOMY; conditions: about 3 weeks
Protocol: as §1, §2, §3, §4

Lolium multiflorum [6] = test: Herbicidal pre-emergence action, LOLMU; conditions: 320 g/ha of a.i., about 3 weeks
Excerpt: as §5, §6, §7, §3, §4

Echinocloa crus-galli [7] = test: Herbicidal post-emergence action, ECHCG; conditions: about 3 weeks
Protocol: as §1, §2, §3, §4

Lolium multiflorum [8] = test: Herbicidal post-emergence action, LOLMU; conditions: about 3 weeks
Protocol: as §1, §2, §3, §4

Sorghum halepense [9] = test: Herbicidal post-emergence action, SORHA; conditions: 320 g/ha, about 3 weeks
Protocol: as §1, §2, §3, §4

Digitaria sanguinalis [10] = test: Herbicidal post-emergence action, DIGSA; conditions: 320 g/ha, about 3 weeks
Protocol: as §1, §2, §3, §4

Sorghum halepense [11] = test: Herbicidal pre-emergence action, SORHA; conditions: 320 g/ha of a.i., about 3 weeks
Digitaria sanguinalis [12] = test: Herbicidal pre-emergence action, DIGSA; conditions: 320 g/ha of a.i., about 3 weeks

Measured: herbicidal activity in percent

CCOC(=O)OC1=C(c2c(C)cc(I)cc2CC)C(=O)C2(CCC(OC)CC2)N1 (mixture of isomers) [I-b-2]
90-100%: Avena fatua; 80 g/ha | Setaria viridis [1] | Echinocloa crus-galli [2] | Setaria viridis [3]; 80 g/ha | Alopecurus myosuroides [4] | Alopecurus myosuroides [5]; 80 g/ha | Lolium multiflorum [6] | Echinocloa crus-galli [7]; 80 g/ha | Lolium multiflorum [8]; 80 g/ha

CCc1cc(C)cc(Br)c1C1=C(OC(=O)C(C)C)NC(C)(C)C1=O [Example I-a-1]
90-100%: Avena fatua; 80 g/ha | Setaria viridis [3]; 80 g/ha | Alopecurus myosuroides [5]; 80 g/ha | Echinocloa crus-galli [7]; 80 g/ha | Lolium multiflorum [8]; 80 g/ha

COc1cc(C)cc(C)c1C1=C(OC(=O)C(C)(C)C)NC2(CCC(OC)CC2)C1=O (stereo not shown) [I-a-2]
90-100%: Avena fatua; 320 g/ha | Sorghum halepense [9] | Setaria viridis [1] | Digitaria sanguinalis [10] | Echinocloa crus-galli [2] | Setaria viridis [3]; 320 g/ha | Alopecurus myosuroides [4] | Sorghum halepense [11] | Alopecurus myosuroides [5]; 320 g/ha | Lolium multiflorum [6] | Echinocloa crus-galli [7]; 320 g/ha | Digitaria sanguinalis [12] | Lolium multiflorum [8]; 320 g/ha

CCc1cc(Cl)cc(Cl)c1C1=C(OC(=O)C(C)(C)C)NC2(CCC(C)CC2)C1=O (stereo not shown) [I-a-4]
90-100%: Avena fatua; 320 g/ha | Sorghum halepense [9] | Digitaria sanguinalis [10] | Setaria viridis [3]; 320 g/ha | Alopecurus myosuroides [5]; 320 g/ha | Echinocloa crus-galli [7]; 320 g/ha | Lolium multiflorum [8]; 320 g/ha

CCc1cc(Br)cc(C)c1C1=C(OC(=O)C(C)(C)C)NC2(CCC(OC)CC2)C1=O (stereo not shown) [I-a-5]
90-100%: Avena fatua; 320 g/ha | Sorghum halepense [9] | Digitaria sanguinalis [10] | Setaria viridis [3]; 320 g/ha | Alopecurus myosuroides [5]; 320 g/ha | Echinocloa crus-galli [7]; 320 g/ha | Lolium multiflorum [8]; 320 g/ha

CCc1cc(Br)cc(C)c1C1=C(OC(=O)C(C)(C)C)NC2(CCC(C)CC2)C1=O (stereo not shown) [I-a-7]
90-100%: Avena fatua; 320 g/ha | Sorghum halepense [9] | Digitaria sanguinalis [10] | Setaria viridis [3]; 320 g/ha | Alopecurus myosuroides [5]; 320 g/ha | Echinocloa crus-galli [7]; 320 g/ha | Lolium multiflorum [8]; 320 g/ha

CCc1cc(Cl)cc(OC)c1C1=C(OC(=O)C(C)(C)C)NC2(CCC(OC)CC2)C1=O (stereo not shown) [I-a-9]
90-100%: Avena fatua; 320 g/ha | Sorghum halepense [9] | Digitaria sanguinalis [10] | Setaria viridis [3]; 320 g/ha | Alopecurus myosuroides [5]; 320 g/ha | Echinocloa crus-galli [7]; 320 g/ha | Lolium multiflorum [8]; 320 g/ha

CCCc1cc(Br)cc(Br)c1C1=C(OC(=O)C(C)(C)C)NC(C)(C)C1=O [I-a-11]
90-100%: Avena fatua; 320 g/ha | Sorghum halepense [9] | Setaria viridis [1] | Digitaria sanguinalis [10] | Echinocloa crus-galli [2] | Setaria viridis [3]; 320 g/ha | Alopecurus myosuroides [4] | Sorghum halepense [11] | Alopecurus myosuroides [5]; 320 g/ha | Lolium multiflorum [6] | Echinocloa crus-galli [7]; 320 g/ha | Digitaria sanguinalis [12] | Lolium multiflorum [8]; 320 g/ha

CCc1cc(Cl)cc(OC)c1C1=C(OC(=O)C(C)(C)C)NC2(CCC(C)CC2)C1=O (stereo not shown) [I-a-12]
90-100%: Avena fatua; 320 g/ha | Sorghum halepense [9] | Setaria viridis [1] | Digitaria sanguinalis [10] | Echinocloa crus-galli [2] | Setaria viridis [3]; 320 g/ha | Alopecurus myosuroides [4] | Sorghum halepense [11] | Alopecurus myosuroides [5]; 320 g/ha | Lolium multiflorum [6] | Echinocloa crus-galli [7]; 320 g/ha | Digitaria sanguinalis [12] | Lolium multiflorum [8]; 320 g/ha

CCc1cc(C)cc(Br)c1C1=C(OC(=O)C(C)(C)C)NC(C)(C)C1=O [I-a-13]
90-100%: Avena fatua; 320 g/ha | Sorghum halepense [9] | Digitaria sanguinalis [10] | Setaria viridis [3]; 320 g/ha | Alopecurus myosuroides [5]; 320 g/ha | Echinocloa crus-galli [7]; 320 g/ha | Lolium multiflorum [8]; 320 g/ha

CCc1cc(Cl)cc(OC)c1C1=C(OC(=O)C(C)(C)C)NC2(CCCCC2)C1=O [I-a-15]
90-100%: Avena fatua; 320 g/ha | Sorghum halepense [9] | Setaria viridis [1] | Digitaria sanguinalis [10] | Echinocloa crus-galli [2] | Setaria viridis [3]; 320 g/ha | Alopecurus myosuroides [4] | Alopecurus myosuroides [5]; 320 g/ha | Lolium multiflorum [6] | Echinocloa crus-galli [7]; 320 g/ha | Lolium multiflorum [8]; 320 g/ha

CCOC(=O)OC1=C(c2c(CC)cc(C)cc2C2CC2)C(=O)C(C)(C)N1 [I-b-5]
90-100%: Setaria viridis [1] | Echinocloa crus-galli [2] | Alopecurus myosuroides [4] | Lolium multiflorum [6]
